Results on 55 compounds are retold here after PubChem BioAssay AID1458 (National Center for Advancing Translational Sciences (NCATS), 2008).

SMILES strings stand for the structures. Hit rate of the full screen: of about 210,000 compounds, about 5,900 (2.8%) were called active. Not shown: some 5% with an inconclusive outcome. Calls follow the shape of the dose curve; as a rule, active = well fitted activation curve with a large enough effect; inconclusive = small, poorly fitted or top-dose-only effect; inactive = no such curve, though single readings can be large or run the other way. The entries are a selection whose mix differs from that of the whole data set. Entries without a call were filed so in the source.
Potency is read from the fitted curve at half-maximal effect.

A short description of this assay: qHTS Assay for Enhancers of SMN2 Splice Variant Expression. Also: nearly all actives have a fitted effect of over 55% in size. As to activity change, positive = activation: % of control where 0% means no effect. As to conditions: HEK293 SMN2-luciferase splicing reporter, luminescence, 30-36 h; activity change, positive = activation: at 46.1 µM (top of the series) unless noted. Summed up: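 HEK293 cells carry an SMN2 minigene-luciferase reporter in which exon 7 inclusion puts luciferase in frame. Cells were seeded at 2000 cells/well, attached for 10-12 hours, then exposed to compounds for 30-36 hours at 37C before ONE-Glo luminescence.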
Background: qHTS replaces the single test concentration by a dilution series.
As for `CCC(=O)Nc1cc(C(=O)OCC(=O)c2ccccc2)ccc1C`, the activity change, positive = activation came out at 84.7%. For `Cc1cc(C)n2nc(CCCO)nc2n1`, the activity change, positive = activation is 34.3%. Still for that read-out and setting: the same measure for `CC1CC/C(=C\c2ccc3c(c2)OCO3)C(=O)/C1=C/c1ccc2c(c1)OCO2` (stereo not given): inactive: -86.1%. As for `O=C(NCCc1csc(-c2ccccc2)n1)c1c(F)cccc1F`, the “activity change, positive = activation” value is inactive: -66.3%. As to `N#CCC(=O)c1sccc1-n1cccc1`, the activity change, positive = activation came out at 30.1%. Take `c1ccc(-c2noc(-c3cccc4ccccc34)n2)cc1`: the Potency is active: 11.2 µM.

Take `CN1CCN(C(=S)c2ccc(-c3cccc(Cl)c3Cl)o2)CC1`: the activity change, positive = activation was found to be 66.1%. For `CCOC(=O)C1CCCN(Cc2cc(Br)ccc2OC)C1` (stereo not given), the activity change, positive = activation turned out to be 49.2%. Consider `C=C(C)CNC(=O)CCc1nnc(Cc2cccc(C(F)(F)F)c2)o1`, for which the Potency was active: 11.2 µM. Consider `C=CCn1c(CNC(=O)c2cccs2)nnc1SCc1ccc(Cl)cc1Cl`, for which the activity change, positive = activation is -30.3%. On to `FC(F)(F)c1cc(-c2ccccc2)nc(N2CCCCC2)n1`, for which the activity change, positive = activation came out at 32.4%. For `CN1/C(=C/C=N/NC(=O)c2ccc([N+](=O)[O-])cc2)C(C)(C)c2ccccc21`, the activity change, positive = activation is -74.1%. Still for that read-out and setting: the same measure for `Cc1cc(C)cc(NS(=O)(=O)c2ccc3c(c2)c(=O)n(C)c(=O)n3C)c1`: -62.5%; for `O=[N+]([O-])c1ccc(-c2nc3ccc([N+](=O)[O-])cc3[nH]2)cc1`: -58.3%. `Cc1nccc2[nH]c(=O)c(C(=O)NC3CCCCC3C)cc12` (stereo not given): the Potency is active: 12.6 µM. As for `O=C(NCc1ccccn1)c1cccc(NS(=O)(=O)c2cccc(Cl)c2)c1`, the “activity change, positive = activation” value was inactive: 12.6%.

Take `CC(=O)CCC(=O)NCCc1ccccc1F`: the activity change, positive = activation came out at 37.4%. Take `CCn1c(=O)n(CC)c2cc(S(=O)(=O)Nc3cc(C)cc(C)c3C#N)ccc21`: the activity change, positive = activation worked out at 25.2%. In the case of `CCC(/C=C1\Sc2ccc(OC)cc2N1CC)=C\c1sc2ccc(OC)cc2[n+]1CCCS(=O)(=O)[O-]`, the activity change, positive = activation is -107%. As to `CN(C)C=Nc1ncc2c3ccccc3n(CCN(C)C)c2c1C#N`, the “activity change, positive = activation” value is inactive: -51.4%. For the compound `c1ccc(-c2cn3nc(-c4ccccc4)cnc3n2)cc1`, the Potency is active: 2 µM. `Fc1ccc(-c2noc(C3CCN(Cc4cccnc4)CC3)n2)cc1`: the activity change, positive = activation is -33.4%.

For `CCOc1ccc(C(=S)N2CCCC2)cc1`, the activity change, positive = activation was determined as 22.8%. Regarding `CCOC(=O)C1=C(C)OC(N)=C(C(=O)OCC)C1c1cccnc1` (stereo not given), the activity change, positive = activation came out at 39.1%.

As to `COc1ccc(OC)c(S(=O)(=O)Nc2cccc(C(C)=O)c2)c1`, the activity change, positive = activation came to 30%. In the case of `Cc1cccn2cc(COc3ccc(-c4ccccc4)cc3)nc12`, the activity change, positive = activation is 363%. Still for that read-out and setting: the same measure for `O=S(=O)(/N=C(/Nc1cc(N2CCOCC2)ncn1)c1ccccc1)c1ccccc1`: 32.1%. For the compound `COc1ccc(-c2noc(CSc3nc4ccccc4[nH]3)n2)cc1OC`, the “activity change, positive = activation” value is inactive: -50.8%. On to `Cc1ccc(C)c(NC(=O)CCn2nc(C)cc2C)c1`, for which the activity change, positive = activation amounted to 45.1%. Regarding `CC1=N/C(=C/c2cccnc2)C(=O)O1`, the “activity change, positive = activation” value was inactive: -18.4%. For `Cc1ccc(C(=O)N/N=C(/CC(=O)c2cccs2)C(F)(F)F)cc1`, the activity change, positive = activation is -32.8%. Regarding `CCCCCOC(=O)C1=C(C)Nc2ncnn2C1c1cccs1` (stereo not given), the activity change, positive = activation was -66.9%. Regarding `CCC(=O)N1c2ccccc2NC2=C(C(=O)CCC2)C1c1ccco1` (stereo not given), the activity change, positive = activation was -44.3%. For the compound `CCNc1ccc(S(=O)(=O)N(C)C)cc1NCC(=O)Nc1ccc(F)c(Cl)c1`, the activity change, positive = activation was -66.4%.

`COc1ccc(-c2cc(C(=O)Nc3ccccc3N3CCOCC3)c3ccccc3n2)cc1OC`: the “activity change, positive = activation” value is inactive: -58.3%. Take `COc1ccc2c(=O)c(-c3ccccc3)coc2c1`: the Potency was active: 11.2 µM. As for `CNC(=O)COc1ccc(C=O)cc1OC`, the “activity change, positive = activation” value was inactive: -35.4%. In the case of `Cc1c(NC(=O)COC(=O)C2(c3ccc(F)cc3)CCCC2)c(=O)n(-c2ccccc2)n1C`, the “activity change, positive = activation” value was inactive: -40.7%. In the case of `CC(=O)Nc1ccc(SCC(=O)c2cc(C)n(-c3ccccc3F)c2C)cc1`, the “activity change, positive = activation” value is inactive: -70.4%. `O=C(c1ccccc1)c1c[nH]c2cc3c(cc2c1=O)OCCO3`: the Potency is active: 22.4 µM.

Turning to `COc1ccc(C(C(=O)NC2CCCCC2)N(C(=O)c2sc(C)nc2C)c2ccccc2C)cc1` (stereo not given), the activity change, positive = activation was -54.6%. For `Cc1nc2c(c(=O)n1Cc1ccco1)c1nc3ccccc3nc1n2Cc1ccccc1`, the activity change, positive = activation is 40.6%. Regarding `CCCCOc1cccc(C(=O)NC(=S)Nc2cccc(NC(=O)c3ccccc3Cl)c2)c1`, the activity change, positive = activation is -46.9%.

Regarding `Cc1ccc(NC(=O)c2ccc(CSc3nnnn3C)cc2)cc1`, the Potency was active: 8.91 µM. For the compound `CCCCN(CC)CCNC(=O)c1cc2c(=O)n(C)c3ccccc3c2n1C`, the activity change, positive = activation was 31.1%.

With `CCn1c(SCC(=O)Nc2nc(-c3ccccc3)cs2)nnc1-c1ccccc1O`, the “activity change, positive = activation” value is inactive: -42.5%.

Regarding `Cc1csc(NC(=O)c2cc([N+](=O)[O-])cc([N+](=O)[O-])c2)n1`, the “activity change, positive = activation” value was inactive: -67.5%. As to `O=C(CSCc1ccccc1)N1CCN(c2ccccc2)CC1`, the Potency is active: 12.6 µM.

As to `O=C(Nc1cccc(Br)c1)c1ccc(OC2CSC2)cc1`, the “activity change, positive = activation” value was inactive: 73.8%.

`CC(C)COc1ccc(C(=O)OCCN2CCOCC2)cc1`: the activity change, positive = activation was -35.7%. Regarding `O=C(N/C(=N\O)c1ccccc1)Nc1ccc(Cl)cc1`, the activity change, positive = activation is 41%. Take `COc1ccc(C2NN=C(c3ccc(C)cc3)S2)cc1OC` (stereo not given): the Potency was active: 11.2 µM.

With `COc1ccc(-n2ncc3c(N4CCN(Cc5ccccc5)CC4)ncnc32)cc1`, the activity change, positive = activation was -51.2%. Consider `Cc1ccc(-c2nc3sc4c(c3c(=O)n2N)CCCC4)cc1`, for which the Potency was active: 11.2 µM.

For `Cc1ccc(NC(=O)c2ccc(CN3CCc4ccccc4C3)cc2)cc1`, the “activity change, positive = activation” value is inactive: -88.4%.
